Drawing on publication PMC3297634, this text covers binding for two molecules.

Results are given in words; binding and its absence hold for the method and conditions named. Binding seen in cells or lysates may run through a third protein. A yes stands for co-enrichment or nearness to the bait. Other partners may have been found.

In this experiment the target is RLIP (bait of the mass spectrometry analysis). Kind of experiment: affinity purification with mass spectrometry; liquid chromatography/electrospray ionization tandem mass spectrometry of proteins interacting with RLIP; how the complexes were isolated is not told.

B1: POB1/Reps2 (protein, UniProt Q8NFH8 1-660)
chain: MEAAAAAAAAAAAAAAAGGGCGSGPPPLLLSEGEQQCYSELFARCAGAAGGGPGSGPPEAARVAPGTATAAAGPVADLFRASQLPAETLHQITELCGAKRVGYFGPTQFYIALKLIAAAQSGLPVRIESIKCELPLPRFMMSKNDGEIRFGNPAELHGTKVQIPYLTTEKNSFKRMDDEDKQQETQSPTMSPLASPPSSPPHYQRVPLSHGYSKLRSSAEQMHPAPYEARQPLVQPEGSSSGGPGTKPLRHQASLIRSFSVERELQDNSSYPDEPWRITEEQREYYVNQFRSLQPDPSSFISGSVAKNFFTKSKLSIPELSYIWELSDADCDGALTLPEFCAAFHLIVARKNGYPLPEGLPPTLQPEYLQAAFPKPKWDCQLFDSYSESLPANQQPRDLNRMEKTSVKDMADLPVPNQDVTSDDKQALKSTINEALPKDVSEDPATPKDSNSLKARPRSRSYSSTSIEEAMKRGEDPPTPPPRPQKTHSRASSLDLNKVFQPSVPATKSGLLPPPPALPPRPCPSQSEQVSEAELLPQLSRAPSQAAESSPAKKDVLYSQPPSKPIRRKFRPENQATENQEPSTAASGPASAATMKPHPTVQKQSSKQKKAIQTAIRKNKEANAVLARLNSELQQQLKEVHQERIALENQLEQLRPVTVL
For the molecule B1, the binding entry is “binds”.

B2: Reps1 (identified by mass spectrometry) (protein, UniProt Q96D71 1-796)
chain: MEGLTLSDAEQKYYSDLFSYCDIESTKKVVVNGRVLELFRAAQLPNDVVLQIMELCGATRLGYFGRSQFYIALKLVAVAQSGFPLRVESINTVKDLPLPRFVASKNEQESRHAASYSSDSENQGSYSGVIPPPPGRGQVKKGSVSHDTVQPRTSADAQEPASPVVSPQQSPPTSPHTWRKHSRHPSGGNSERPLAGPGPFWSPFGEAQSGSSAGDAVWSGHSPPPPQENWVSFADTPPTSTLLTMHPASVQDQTTVRTVASATTAIEIRRQSSSYDDPWKITDEQRQYYVNQFKTIQPDLNGFIPGSAAKEFFTKSKLPILELSHIWELSDFDKDGALTLDEFCAAFHLVVARKNGYDLPEKLPESLMPKLIDLEDSADVGDQPGEVGYSGSPAEAPPSKSPSMPSLNQTWPELNQSSEQWETFSERSSSSQTLTQFDSNIAPADPDTAIVHPVPIRMTPSKIHMQEMELKRTGSDHTNPTSPLLVKPSDLLEENKINSSVKFASGNTVADGYSSSDSFTSDPEQIGSNVTRQRSHSGTSPDNTAPPPPPPRPQPSHSRSSSLDMNRTFTVTTGQQQAGVVAHPPAVPPRPQPSQAPGPAVHRPVDADGLITHTSTSPQQIPEQPNFADFSQFEVFAASNVNDEQDDEAEKHPEVLPAEKASDPASSLRVAKTDSKTEEKTAASAPANVSKGTTPLAPPPKPVRRRLKSEDELRPEVDEHTQKTGVLAAVLASQPSIPRSVGKDKKAIQASIRRNKETNTVLARLNSELQQQLKDVLEERISLEVQLEQLRPFSHL
Turning to B2, the binding result was “binds”.
